Results on two substances are retold here after doi:10.1101/2020.04.20.051433.

Amino acid sequences for entries named in this document (tags omitted). A change or cut given only in a name is not applied to a line headed by its entry.
UniProt P08926: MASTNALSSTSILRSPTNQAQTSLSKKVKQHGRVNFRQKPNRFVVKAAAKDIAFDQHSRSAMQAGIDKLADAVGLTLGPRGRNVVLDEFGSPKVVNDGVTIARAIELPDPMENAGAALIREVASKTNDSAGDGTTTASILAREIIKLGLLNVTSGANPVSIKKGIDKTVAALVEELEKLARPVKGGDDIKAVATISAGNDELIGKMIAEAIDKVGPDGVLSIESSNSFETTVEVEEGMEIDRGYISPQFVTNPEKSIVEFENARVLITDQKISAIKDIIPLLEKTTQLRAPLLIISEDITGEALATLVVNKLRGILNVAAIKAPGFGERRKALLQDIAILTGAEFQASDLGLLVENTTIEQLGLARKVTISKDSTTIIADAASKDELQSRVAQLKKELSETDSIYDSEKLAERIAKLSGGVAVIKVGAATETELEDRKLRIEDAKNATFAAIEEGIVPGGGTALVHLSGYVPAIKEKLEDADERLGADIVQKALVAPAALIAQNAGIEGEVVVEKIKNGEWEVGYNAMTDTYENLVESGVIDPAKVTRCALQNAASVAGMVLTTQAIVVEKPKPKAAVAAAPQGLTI
UniProt P08927: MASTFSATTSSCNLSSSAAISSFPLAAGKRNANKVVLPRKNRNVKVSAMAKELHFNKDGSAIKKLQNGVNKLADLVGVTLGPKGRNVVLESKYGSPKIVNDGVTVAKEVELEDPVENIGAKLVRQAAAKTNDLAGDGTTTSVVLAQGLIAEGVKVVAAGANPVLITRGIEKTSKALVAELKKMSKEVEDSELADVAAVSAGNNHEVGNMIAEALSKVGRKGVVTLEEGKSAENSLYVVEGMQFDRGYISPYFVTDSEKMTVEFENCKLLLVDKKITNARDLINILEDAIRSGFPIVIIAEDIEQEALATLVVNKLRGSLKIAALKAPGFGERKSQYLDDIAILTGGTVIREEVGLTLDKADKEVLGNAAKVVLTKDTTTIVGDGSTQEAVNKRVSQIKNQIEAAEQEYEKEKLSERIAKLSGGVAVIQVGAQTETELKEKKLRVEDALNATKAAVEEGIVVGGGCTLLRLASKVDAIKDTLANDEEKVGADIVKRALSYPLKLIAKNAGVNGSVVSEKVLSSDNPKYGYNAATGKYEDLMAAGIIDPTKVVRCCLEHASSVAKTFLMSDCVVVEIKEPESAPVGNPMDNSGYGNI
UniProt Q8H0W1: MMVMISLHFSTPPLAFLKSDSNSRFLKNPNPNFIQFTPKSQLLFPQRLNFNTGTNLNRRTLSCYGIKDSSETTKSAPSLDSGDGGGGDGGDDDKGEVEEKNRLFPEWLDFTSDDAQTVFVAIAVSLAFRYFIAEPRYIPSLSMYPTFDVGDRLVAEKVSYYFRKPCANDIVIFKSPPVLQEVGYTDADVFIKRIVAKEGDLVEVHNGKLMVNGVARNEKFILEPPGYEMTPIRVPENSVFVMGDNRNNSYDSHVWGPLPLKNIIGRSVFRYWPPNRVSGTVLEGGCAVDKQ

In assay [1] the target is T1, Cpn60 tetradecamer (Cpn60_(14)) reconstituted from P. sativum His-Cpn60 α1 and His-Cpn60 β1 (P. sativum) (UniProt P08926+P08927). Nature of the assay: native gel or EMSA. In general terms: A gel shift assay detects complexes by their altered migration in electrophoresis.
Assay [2] has as its target T1, Cpn60 tetradecamer (Cpn60_(14)) reconstituted from P. sativum His-Cpn60 α1 and His-Cpn60 β1 (P. sativum). Nature of the assay: native gel or EMSA. The source holds these as a separate data set.
Assay [3] has the same target. Briefly: Proteinase K protection.
Assay [4] shares this target. Briefly: native gel or EMSA. The source holds these as a separate data set.

Results are given in words; binding and its absence hold for the method and conditions named. Some results given as binding are weak or reduced against the parent protein; the word gives no strength.

For “mPlsp1, in vitro translated, radiolabeled (from UniProt Q8H0W1 68-291)”, the binding entry is listed as “binds” in assay [1], “no binding (condition: with 10 mM ATP)” in assay [2], “binds” in assay [3] and “binds” in assay [4].
On to “prPlsp1, in vitro translated, radiolabeled (from UniProt Q8H0W1 1-291)”, for which the binding entry in assay [3] is reported as “binds”.
